Among the data in patent EP1770089A1, “Pyranodibenzofuran derivatives with antifungal and antibacterial activity” (priority 2005, dated 2007) are SI values, retold here.

Common to all, as to assay type: cell-based
Series [1] has as its system L1210 cells. The experiment in a line: Cytotoxicity, MTA (Microculture Tetrazolium Assay) test. The note with it: SI = IC50/MIC99, MIC99 used not specified. How it is done: The cytotoxicity of compounds 5, 9, and 10-21 was determined in L1210 cells using the MTA (Microculture Tetrazolium Assay) test.
The subject of series [2] is Macrophages. The experiment in a line: Cytotoxicity, MTT test. The following applies: SI = IC50/MIC99. How it is done:
(§1) The cytotoxicity of compounds 9 and 16 was further assessed in various mammalian cell lines using the MTT test. RAW and A549 cell lines were maintained in RPMI 1640 medium without L-GLU supplemented with 10% Fetal calf serum (FCS), penicillin-streptomycin solution 1 % at 37 °C in air with 5 % CO2. VERO cell lines were maintained in D-MEM medium without L-GLU supplemented with 10% Fetal calf Serum (FCS), penicillin-streptomycin solution 1 % at 37 °C in air with 5 % CO2. Proliferating cells were seeded for 96-well microtitration plates at a density of 5. 10^5 cells/mL which were further incubated for 24 h at 37°C under 5 % CO2 in air before each assay. Various concentrations of solutions of 9 and 16 (10 µl/well) in 1.25 % dimethylsulfoxide (DMSO)) were added and then incubated for 24 hours under the above conditions. At the end of incubation, 20 µl of dimethylthiazolyl diphenyl tetrazolium bromide solution (MTT) (7.5 mg/ml) was then added into each well and further incubated for 4 h at 37°C to allow the formation of formazan. The crystals of formazan were then dissolved with 100 µl of an acidic solution (Sodium dodecyl sulfate (SDS) 10 %, HCl 10 mM). The optical density of each well was measured at 595 nm using a Multiwell plate reader. The values given are the average means of six replicates. The 50 % inhibition concentration was determined by curve fitting.

In series [3] the test system is VERO cells. The experiment in a line: Cytotoxicity, MTT test. The following applies: SI = IC50/MIC99. How it is done:
as §1
For orientation: Tetrazolium dyes change colour on reduction, which living cells bring about.

In turn, `C=C1Oc2ccc3oc4ccccc4c3c2C1(C)C` [Compound 10, 1,2-dihydro-1,1-dimethyl-2-methylenebenzofuro[5,4-b]benzofuran] registered an SI in series [1] of under 0.06175.
Still for that read-out and setting: the same measure for `CC(=O)OC1C(=O)c2c(ccc3oc4ccccc4c23)OC1(C)C` (racemic) [Compound 20, (±)2-acetoxy-2,3-dihydro-2-hydro-3,3-dimethyl-1H-benzofuro[3,2-f][1]benzopyran-1-one]: under 0.0285.
`CC(=O)O[C@@H]1c2c(ccc3oc4ccccc4c23)OC(C)(C)[C@@H]1OC(C)=O` (racemic) [Compound 18, (±)cis-1,2-diacetoxy-1,2-dihydro-3,3-dimethyl-3H-benzofuro[3,2-f][1]benzopyran] gave an SI in series [1] of under 0.009348.
Still for that read-out and setting: the same measure for “(±)cis-4H-3a,4,12b-trihydro-2,2-dimethyl-1,3-dioxolo[4,5-h]benzofuro[3,2-g]benzopyran [Compound 21]”: under 0.01285.
For `CC1(C)C=Cc2c(ccc3oc4ccccc4c23)O1` [Compound 9, 3,3-dimethyl-3H-benzofuro[3,2-f][1]benzopyran], the values for the SI in series [2], in series [3] and in series [1] were 15, 15 and over 2.8, respectively.
`CC1(C)Oc2ccc3oc4ccccc4c3c2C(=O)C1O` (racemic) [Compound 13, (±)2,3-dihydro-2-hydroxy-3,3-dimethyl-1H-benzofuro[3,2-f][1]benzopyran-1-one] gave an SI in series [1] of under 0.005045.
Still for that read-out and setting: the same measure for `CC(=O)O[C@@H]1c2c(ccc3oc4ccccc4c23)OC(C)(C)[C@H]1OC(C)=O` (racemic) [Compound 19, (±)trans-1,2,-diacetoxy-1,2-dihydro-3,3-dimethyl-3H-benzofuro[3,2-f][1]benzopyran]: under 0.005501; for `CC(=O)CC1(O)C(=O)c2c(ccc3oc4ccccc4c23)OC1(C)C` (racemic) [Compound 14, (±)2,3-dihydro-2-hydroxy-3,3-dimethyl-2-(2-oxopropyl)-1Hbenzofuro[3,2f][1]benzopyran-1-one]: 0.6327; for `CC1(C)Oc2cc3c(cc2[C@H](O)[C@@H]1O)oc1ccccc13` (racemic) [Compound 11, (±)cis-3,4-dihydro-3,4-dihydroxy-2,2-dimethyl-2H-benzofuro[2,3-g]-[1]-benzopyran]: under 0.4332.
Same read-out and setting: to `CC(=O)O[C@H]1c2cc3oc4ccccc4c3cc2OC(C)(C)[C@H]1OC(C)=O` (racemic) [Compound 17, (±)cis-3,4-diacetoxy-3,4-dihydro-2,2-dimethyl-2H-benzofuro[2,3-g]-[1]-benzopyran] belongs under 0.008521.
With `CC1(C)CCc2c(ccc3oc4ccccc4c23)O1` [Compound 16, 1,2-dihydro-3,3-dimethyl-3H-benzofuro[3,2-f][1]benzopyran], the SI in series [2] is reported as over 20; in series [3], 20.
With `NNC(=O)c1ccncc1` [INH, isoniazid, reference compound], the SI in series [1] turned out to be 2.8.
Same read-out and setting: the same measure for `CC1(C)Oc2ccc3oc4ccccc4c3c2[C@@H](O)[C@@H]1O` (racemic) [Compound 15, (±)trans-1,2,-dihydro-1,2-dihydroxy-3,3-dimethyl-3H-benzofuro[3,2-f][1]benzopyran]: under 0.01234.
As for `CC1(C)Oc2ccc3oc4ccccc4c3c2[C@@H](O)[C@H]1O` (racemic) [Compound 12, (±)cis-1,2-dihydro-1,2-dihydroxy-3,3-dimethyl-3H-benzofuro[3,2-f][1]benzopyran], the SI in series [1] is given as under 0.0013.
